Measured values as given in patent US20090220490A1, “Compositions and Assays for Inhibiting HCV Infection” (priority 2006, published 2009).
Read-outs that look alike come from different tables or passages of the source. For at least one compound, name, drawing or mass did not settle the structure. Where a SMILES comes first, the peptide text is derived from it. The star is where a group is joined. FITC = O=C1OC2(c3ccc(O)cc3Oc3cc(O)ccc32)c2ccc(NC(=S)*)cc21

Protein sequences, listed by entry. Tags and fused reporters are not part of them. Residues count along the entry.
UniProt P27958, 384-746: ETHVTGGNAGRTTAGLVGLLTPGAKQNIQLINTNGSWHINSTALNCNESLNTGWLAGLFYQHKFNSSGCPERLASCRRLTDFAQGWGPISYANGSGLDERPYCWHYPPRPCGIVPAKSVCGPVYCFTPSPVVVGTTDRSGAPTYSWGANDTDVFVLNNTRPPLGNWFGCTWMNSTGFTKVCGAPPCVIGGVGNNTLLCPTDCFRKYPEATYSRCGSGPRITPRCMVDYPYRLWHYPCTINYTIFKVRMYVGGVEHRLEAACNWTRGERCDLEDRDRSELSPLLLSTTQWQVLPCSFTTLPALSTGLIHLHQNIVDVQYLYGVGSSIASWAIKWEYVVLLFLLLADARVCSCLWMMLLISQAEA

Target: T1, recombinant HCV E2 (Hepatitis C virus genotype 1a, UniProt P27958)
T1 construct: used to remove the E2 cDNA for the study; HA; made in house; host or cells: cell-free in vitro transcription/translation, RTS 500 ProteoMaster E. coli HY Kit (Roche)
Assay: cell-free kinase assay: phosphorylation of purified AP-50 by recombinant HCV E2
Assay type: biochemical

SMILES: CC(C)[C@H](NC(=O)[C@H](CCC(N)=O)NC(=O)[C@H](CCCNC(=N)N)NC(=O)[C@H](CCCNC(=N)N)NC(=O)[C@H](CCCNC(=N)N)NC(=O)[C@H](CCC(N)=O)NC(=O)[C@H](CCCNC(=N)N)NC(=O)[C@H](CCCNC(=N)N)NC(=O)[C@H](CCCCN)NC(=O)[C@H](CCCCN)NC(=O)[C@H](CCCNC(=N)N)NC(=O)CNC(=O)[C@H](Cc1ccc(O)cc1)NC(=O)CNC(=O)CNC(=O)CNC(=O)CNC(=S)Nc1ccc2c(c1)C(=O)OC21c2ccc(O)cc2Oc2cc(O)ccc21)C(=O)N[C@@H](C)C(=O)NCC(=O)N[C@@H](CCC(N)=O)C(=O)O [AP-50 peptide] ({FITC}-GGGGYGRKKRRQRRRQVAGQ-OH; N-terminus and C-terminus assumed)
- IC50 (cell-free kinase assay of purified AP-50, FIG. 13A legend, read-out: IC50, prevention of phosphorylation of endogenous AP-50 by recombinant HCV E2): ~150 µM
- IC50 (cell-free kinase assay, FIG. 13A as stated in the text, read-out: IC50, prevention of phosphorylation of endogenous AP-50 protein by recombinant HCV E2): ~0.00015 µM
